These are yes or no findings as the source states them, for the method shown.
Legend:
[1] = molecular target: PedB, pediocin-like immunity protein conferring immunity to pediocin PP-1 (Pediococcus pentosaceus CBT-8) (Pediococcus pentosaceus CBT-8) (UniProt P36496); experiment: crystal structure; native PedB crystals, space group P6(2), one molecule in the asymmetric unit, 1.6 Å; crystal packing inspected; both purified
[2] = molecular target: PedB, pediocin-like immunity protein conferring immunity to pediocin PP-1 (Pediococcus pentosaceus CBT-8) (Pediococcus pentosaceus CBT-8) (UniProt P36496); experiment: SEC; gel filtration of purified recombinant PedB on Superdex 75 16/60, 20 mM Tris-HCl pH 8.0, 150 mM NaCl, against low molecular mass standards (Kav); both purified

B1: PedB, pediocin-like immunity protein conferring immunity to pediocin PP-1 (Pediococcus pentosaceus CBT-8) (protein, UniProt P36496 1-112)
chain: MNKTKSEHIKQQALDLFTRLQFLLQKHDTIEPYQYVLDILETGISKTKHNQQTPERQARVVYNKIASQALVDKLHFTAEENKVLAAINELAHSQKGWGEFNMLETTNTWPSQ
With B1 the binding [1] was “no binding” and the binding [2] was “no binding”.

— PMC1904221
